Inconclusive means that the source gave no clear call. Such entries were picked first, then a sample of the others. Potencies of inconclusive entries are doubtful fits and often do not repeat. The source made the active and inactive calls. Calls follow the shape of the dose curve; as a rule, active = well fitted inhibition curve with a large enough effect; inconclusive = small, poorly fitted or top-dose-only effect; inactive = no such curve, though single readings can be large or run the other way.
biological target: Histone-lysine N-methyltransferase 2A (Homo sapiens) (UniProt Q03164); assay: qHTS Fluorescence Polarization (FP) Assay for Inhibitors of MLL CXXC domain - DNA interaction: Texas Red FP; conditions: MLL CXXC-DNA binding; series mostly up to 345 µM; also: nearly all actives have a fitted effect of over 75% in size
Description: The MLL (Mixed Lineage Luekemia) gene is involved in chromosomal translocation that results in either acute lymphoid leukemia (ALL) or acute myeloid leukemia (AML). Chromasomal translocation of MLL gene is responsible for the fusion of N-terminal MLL to more than 60 different partner genes in frame. Many of the MLL partner genes contain transcription activation domains or function as transcriptional activators. Despite the heterogeneity of fusion partners, the N-terminus of MLL fusion proteins always consists of the N-terminal menin binding motif and the CXXC domain. The MLL-CXXC domain specifically recognizes unmethylated CpG sequences of the HOX-A gene. Disruption of the MLL-CXXC and HOX-A gene interaction leads to down regulation of HOX-A gene expression and may potentially reverse leukemogenesis. We have miniaturized and optimized an in-vitro assay to screen for inhibitors of the MLL-CXXC domain and HOX-A DNA interaction, which could have utility in MLL fusion leukemias.
This is a hit validation assay that tests this hits identified in the primary screen in this secondary screen, using a Texas Red FP as a read-out.
NIH Molecular Libraries Probe Production Network [MLPCN]
NIH Chemical Genomics Center [NCGC]
PI Name: John Bushweller, University of Virgina
The affinity purified MLL-CXXC domain, unlabeled HOX-A9 DNA strand, Texas Red (FLSN) labeled HOX-A9 DNA strand were kindly supplied by the laboratory of Dr. John Bushweller, University of Virginia. All reagents were stored in single use aliquots at -80C.
Assay buffer: 50 mM TRIS-HCl pH 7.5, 50 mM NaCl, 1 mM DTT. Add 0.05% BSA prior to reaction setup.
1.Dispense 1 ul of a 7 uM MLL-CXXC solution prepared in assay buffer into column 1-48.
2.Transfer 23 nl of compounds and unlabeled HOX-A9 per well.
3.Incubate for 5 minutes at ambient.
4.Dispense 1ul of a 50 nM TR-HOX-A9 solution prepared in assay buffer into columns 1-48
5.Centrifuge for 30 seconds at 1000 RPM.
6.Incubate for 30 minutes at ambient.
7.Read using the Envision reader fluorescent polarization protocol.
Potency is read from the fitted curve at half-maximal effect.

By UniProt entry, the sequences of proteins in these tests, tags left out.
UniProt Q03164, whole entry, looked up: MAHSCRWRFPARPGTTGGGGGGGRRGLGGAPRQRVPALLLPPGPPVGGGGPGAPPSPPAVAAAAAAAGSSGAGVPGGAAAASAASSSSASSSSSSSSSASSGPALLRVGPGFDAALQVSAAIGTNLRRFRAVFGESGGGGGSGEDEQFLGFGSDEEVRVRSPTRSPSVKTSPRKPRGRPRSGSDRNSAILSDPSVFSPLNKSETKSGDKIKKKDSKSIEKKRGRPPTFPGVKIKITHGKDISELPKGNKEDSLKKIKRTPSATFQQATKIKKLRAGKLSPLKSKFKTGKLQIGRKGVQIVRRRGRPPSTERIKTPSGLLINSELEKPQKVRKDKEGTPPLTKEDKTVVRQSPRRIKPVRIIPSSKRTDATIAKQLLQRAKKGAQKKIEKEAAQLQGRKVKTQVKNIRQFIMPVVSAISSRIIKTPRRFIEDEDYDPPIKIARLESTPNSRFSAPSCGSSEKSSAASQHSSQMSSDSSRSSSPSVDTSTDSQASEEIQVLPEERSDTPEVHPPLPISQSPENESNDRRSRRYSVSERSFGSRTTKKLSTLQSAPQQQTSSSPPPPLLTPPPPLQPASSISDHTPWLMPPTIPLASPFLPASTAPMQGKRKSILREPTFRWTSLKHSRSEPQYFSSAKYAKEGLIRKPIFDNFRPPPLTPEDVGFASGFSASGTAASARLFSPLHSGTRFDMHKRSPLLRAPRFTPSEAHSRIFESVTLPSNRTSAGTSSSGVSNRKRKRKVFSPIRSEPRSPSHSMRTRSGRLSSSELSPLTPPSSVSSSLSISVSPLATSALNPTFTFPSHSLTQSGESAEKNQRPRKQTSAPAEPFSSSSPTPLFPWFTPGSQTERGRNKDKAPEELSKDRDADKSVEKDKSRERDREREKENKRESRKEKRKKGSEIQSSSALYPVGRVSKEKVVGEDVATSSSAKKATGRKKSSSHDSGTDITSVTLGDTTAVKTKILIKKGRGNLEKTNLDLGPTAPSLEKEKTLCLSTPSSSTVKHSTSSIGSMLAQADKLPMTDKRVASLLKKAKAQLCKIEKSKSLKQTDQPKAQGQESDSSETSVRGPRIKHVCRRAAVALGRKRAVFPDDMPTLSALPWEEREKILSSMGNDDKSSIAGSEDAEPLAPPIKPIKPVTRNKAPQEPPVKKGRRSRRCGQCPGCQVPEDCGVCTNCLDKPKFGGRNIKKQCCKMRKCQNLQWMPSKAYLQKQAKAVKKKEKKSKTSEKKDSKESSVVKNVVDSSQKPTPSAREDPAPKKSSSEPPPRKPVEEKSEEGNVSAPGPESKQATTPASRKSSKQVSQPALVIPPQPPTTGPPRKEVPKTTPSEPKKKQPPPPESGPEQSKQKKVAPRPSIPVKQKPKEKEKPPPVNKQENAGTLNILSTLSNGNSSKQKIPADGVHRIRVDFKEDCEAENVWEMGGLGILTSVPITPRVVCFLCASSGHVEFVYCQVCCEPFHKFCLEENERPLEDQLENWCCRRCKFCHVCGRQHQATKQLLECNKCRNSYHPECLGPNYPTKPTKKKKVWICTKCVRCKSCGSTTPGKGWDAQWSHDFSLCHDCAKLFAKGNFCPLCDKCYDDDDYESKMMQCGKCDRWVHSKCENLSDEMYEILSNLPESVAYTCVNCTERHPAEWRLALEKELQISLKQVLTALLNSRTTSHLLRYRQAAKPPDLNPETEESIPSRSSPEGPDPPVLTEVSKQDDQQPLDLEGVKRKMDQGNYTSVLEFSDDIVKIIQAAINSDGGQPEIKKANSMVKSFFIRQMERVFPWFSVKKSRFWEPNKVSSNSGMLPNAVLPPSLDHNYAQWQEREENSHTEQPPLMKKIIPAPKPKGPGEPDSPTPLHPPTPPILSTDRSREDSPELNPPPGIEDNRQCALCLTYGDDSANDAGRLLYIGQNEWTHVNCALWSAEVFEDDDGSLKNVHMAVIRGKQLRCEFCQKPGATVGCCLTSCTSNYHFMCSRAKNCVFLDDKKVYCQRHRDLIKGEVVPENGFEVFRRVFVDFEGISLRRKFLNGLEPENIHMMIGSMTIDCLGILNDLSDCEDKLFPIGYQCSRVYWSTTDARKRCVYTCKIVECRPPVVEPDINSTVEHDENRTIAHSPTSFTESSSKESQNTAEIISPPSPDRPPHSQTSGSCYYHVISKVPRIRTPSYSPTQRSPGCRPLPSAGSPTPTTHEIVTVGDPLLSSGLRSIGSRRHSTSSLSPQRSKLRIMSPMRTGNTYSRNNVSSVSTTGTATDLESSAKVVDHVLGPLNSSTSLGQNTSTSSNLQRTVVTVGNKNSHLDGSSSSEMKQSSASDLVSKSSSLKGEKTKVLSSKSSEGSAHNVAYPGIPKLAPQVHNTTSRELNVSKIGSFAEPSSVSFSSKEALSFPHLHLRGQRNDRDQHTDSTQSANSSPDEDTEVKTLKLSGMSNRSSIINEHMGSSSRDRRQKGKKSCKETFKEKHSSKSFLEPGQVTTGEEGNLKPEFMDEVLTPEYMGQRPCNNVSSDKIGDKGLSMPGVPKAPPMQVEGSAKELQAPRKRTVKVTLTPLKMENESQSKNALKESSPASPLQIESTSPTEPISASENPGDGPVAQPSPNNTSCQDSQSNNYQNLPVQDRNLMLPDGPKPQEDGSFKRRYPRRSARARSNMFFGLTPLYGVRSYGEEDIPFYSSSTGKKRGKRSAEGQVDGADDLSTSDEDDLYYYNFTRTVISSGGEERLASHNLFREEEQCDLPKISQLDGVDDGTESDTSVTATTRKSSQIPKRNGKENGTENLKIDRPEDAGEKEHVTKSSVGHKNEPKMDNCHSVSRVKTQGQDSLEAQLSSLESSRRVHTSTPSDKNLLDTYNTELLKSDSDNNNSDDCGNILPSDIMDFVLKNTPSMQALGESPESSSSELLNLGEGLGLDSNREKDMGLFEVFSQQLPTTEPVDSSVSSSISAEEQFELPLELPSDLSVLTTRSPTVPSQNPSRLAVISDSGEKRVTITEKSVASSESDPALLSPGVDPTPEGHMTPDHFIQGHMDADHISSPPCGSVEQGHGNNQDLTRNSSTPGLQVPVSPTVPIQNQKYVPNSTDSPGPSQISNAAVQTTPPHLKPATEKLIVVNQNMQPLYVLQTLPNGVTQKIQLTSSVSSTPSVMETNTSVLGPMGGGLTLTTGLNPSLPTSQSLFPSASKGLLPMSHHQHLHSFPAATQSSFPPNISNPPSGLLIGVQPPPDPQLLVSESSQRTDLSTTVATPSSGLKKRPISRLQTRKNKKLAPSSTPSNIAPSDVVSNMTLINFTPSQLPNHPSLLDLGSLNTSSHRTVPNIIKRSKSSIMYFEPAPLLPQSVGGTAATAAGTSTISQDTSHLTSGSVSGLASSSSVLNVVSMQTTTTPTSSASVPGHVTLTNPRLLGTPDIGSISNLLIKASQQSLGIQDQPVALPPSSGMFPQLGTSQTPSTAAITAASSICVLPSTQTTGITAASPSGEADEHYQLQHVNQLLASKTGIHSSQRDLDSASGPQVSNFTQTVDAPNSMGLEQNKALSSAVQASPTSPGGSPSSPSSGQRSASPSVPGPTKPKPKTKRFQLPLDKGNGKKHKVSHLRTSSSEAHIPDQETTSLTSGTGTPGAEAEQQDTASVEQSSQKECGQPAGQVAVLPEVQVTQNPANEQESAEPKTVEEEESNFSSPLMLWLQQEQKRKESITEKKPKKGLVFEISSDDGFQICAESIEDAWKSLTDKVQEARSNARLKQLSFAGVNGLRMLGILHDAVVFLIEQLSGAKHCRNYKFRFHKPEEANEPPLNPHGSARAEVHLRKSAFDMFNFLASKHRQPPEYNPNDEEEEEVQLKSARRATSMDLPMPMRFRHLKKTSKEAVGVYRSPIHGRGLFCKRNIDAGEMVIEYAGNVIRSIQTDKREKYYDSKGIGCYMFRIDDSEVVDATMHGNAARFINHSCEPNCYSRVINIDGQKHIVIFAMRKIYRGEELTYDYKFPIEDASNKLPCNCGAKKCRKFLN

SMILES | Potency
CC[C@@H](CO)NC(=O)[C@@H]1C=C2c3cccc4[nH]cc(c34)C[C@H]2N(C)C1 | inactive
NC(Cc1cc(O)c(O)cc1O)C(=O)O (stereo not given) | inconclusive: 200 µM [inhibitor, single point]
COc1ccc(N=Cc2c(O)n(Cc3ccccc3)c(=S)[nH]c2=O)c(OC)c1 | inactive
CCn1nc(-c2cccs2)nc2c(=O)n(C)c(=O)nc1-2 | inconclusive: 35.6 µM [inhibitor, full curve]
Cc1cc(/C=C2\C(=O)NC(=O)N(c3ccc(F)cc3)C2=O)c(C)n1-c1ccc(C(=O)O)cc1 | active: 100 µM
Cc1cc(/C=C2\C(=O)NC(=O)N(c3cccc(F)c3)C2=O)c(C)n1-c1ccc(C(=O)O)c(Cl)c1 | active: 89.5 µM
CC(CO)NC(=O)C1C=C2c3cccc4[nH]cc(c34)CC2N(C)C1 (stereo not given) | inconclusive: 126 µM [inhibitor, partial curve]
CCOc1cc(C=C2C(=O)NC(=O)NC2=O)cc([N+](=O)[O-])c1O | active: 89.5 µM
Cc1cc(/C=C2\C(=O)NC(=O)N(Cc3ccccc3Cl)C2=O)c(C)n1-c1ccc(C(=O)O)cc1 | active: 50.3 µM
COc1cc(C=C2C(=O)NC(=O)NC2=O)ccc1O | active: 159 µM
O=C1NC(=O)C(=Cc2cn(CCOc3ccc4c(c3)OCO4)c3ccccc23)C(=O)N1 | inconclusive: 0.4 µM [inhibitor, full curve]
CCC(CO)NC(=O)[C@@H]1C=C2c3cccc4[nH]cc(c34)C[C@H]2N(C)C1 (stereo not given in full) | inconclusive: 159 µM [inhibitor, partial curve]
CSC[C@H](NC(=O)COc1cc2c(c3oc(=O)c(C)c(C)c13)CCC(C)(C)O2)C(=O)O | inconclusive: 159 µM [inhibitor, partial curve]
COc1ccc(OCCOc2cccc(C=C3C(=O)NC(=O)NC3=O)c2)cc1 | inconclusive: 44.8 µM [inhibitor, partial curve]
Cc1cc(/C=C2\C(=O)NC(=O)N(c3cccc(F)c3)C2=O)c(C)n1-c1cc(C(=O)O)cc(C(=O)O)c1 | inconclusive: 71.1 µM [inhibitor, partial curve]
O=C(O)c1ccccc1-c1c2cc(Br)c(=O)cc-2oc2[c]([Hg])c(O)c(Br)cc12 | inactive
CN1C(=O)C(=Cc2ccccc2OCc2ccc(C(=O)O)cc2)C(=O)N(C)C1=O | active: 142 µM
CN1C(=O)C(c2ccc([N+](=O)[O-])cc2[N+](=O)[O-])C(=O)N(C)C1=O | inconclusive: 113 µM [inhibitor, partial curve, poor fit]
O=P(O)(O)C(Cl)(Cl)P(=O)(O)O | inconclusive: 100 µM [inhibitor, partial curve]
O=C1NC(=S)NC(=O)C12C(c1ccc(F)cc1)NC(=S)NC2c1ccc(F)cc1 (stereo not given) | inactive

Three structures out of the list, arranged by count of non-hydrogen atoms, descending.
SMILES | Potency
Cc1cc(/C=C2\C(=O)NC(=O)N(c3cccc(F)c3)C2=O)c(C)n1-c1ccc(C(=O)O)c(Cl)c1 | active: 89.5 µM
COc1ccc(OCCOc2cccc(C=C3C(=O)NC(=O)NC3=O)c2)cc1 | inconclusive: 44.8 µM [inhibitor, partial curve]
CCC(CO)NC(=O)[C@@H]1C=C2c3cccc4[nH]cc(c34)C[C@H]2N(C)C1 (stereo not given in full) | inconclusive: 159 µM [inhibitor, partial curve]

Reference: PubChem BioAssay AID624161 (National Center for Advancing Translational Sciences (NCATS), 2012)
